# In the supplement of paper PMC8728848:
# The list shows a part of the results.
# B1: Aap arpt (Staphylococcus epidermidis) (protein)
# chain: NNEAPQMSSTLQAEEGSNAEAPQSEPTKAEEGGNAEAAQSEPTKAEEGGNAEAPQSEPTKAEEGGNAEAAQSEPTKTEEGSNVKAAQSEPTKAEEGSNAEAPQSEPTKTEEGSNAKAAQSEPTKAEEGGNAEAAQSEPTKTEEGSNAEAPQSEPTKAEEGGYAEAPQSEPTKTEEGGNAEAPNVPTIKA
# Tests used:
# Experiment in all cases: glycan array binding signal (z-score within array); higher = stronger binding
# Conditions in all cases: glycan notation: IUPAC condensed, linker removed
# [1] = target: Gal(b1-4)GlcNAc(b1-3)Gal(b1-4)GlcNAc(b1-2)[Gal(b1-4)GlcNAc(b1-3)Gal(b1-4)GlcNAc(b1-6)]Man(a1-6)[Gal(b1-4)GlcNAc(b1-3)Gal(b1-4)GlcNAc(b1-2)Man(a1-3)]Man(b1-4)GlcNAc(b1-4)GlcNAc
# Summary of the method: (§1)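 Glycan array data came from 3228 arrays in the Consortium for Functional Glycomics database, and only arrays with an available protein sequence were kept. Glycan names were put into IUPAC-condensed notation, and columns mapping to the same glycan were averaged. The binding signal is a within-array Z-score, averaged across arrays of one protein sequence run at different concentrations or buffers and across linkers. A negative Z-score can be read as non-binding.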
# [2] = target: Gal(b1-4)GlcNAc(b1-3)Gal(b1-4)GlcNAc(b1-2)[Gal(b1-4)GlcNAc(b1-3)Gal(b1-4)GlcNAc(b1-6)]Man(a1-6)[Gal(b1-4)GlcNAc(b1-3)Gal(b1-4)GlcNAc(b1-2)Man(a1-3)]Man(b1-4)GlcNAc(b1-4)[Fuc(a1-6)]GlcNAc
# Summary of the method: as §1
# [3] = target: Gal(b1-4)GlcNAc(b1-3)Gal(b1-4)GlcNAc(b1-3)Gal(b1-4)GlcNAc
# Summary of the method: as §1
# [4] = target: Gal(b1-4)GlcNAc(b1-3)Gal(b1-4)GlcNAc(b1-3)Gal(b1-4)GlcNAc(b1-2)Man(a1-3)[Gal(b1-4)GlcNAc(b1-3)Gal(b1-4)GlcNAc(b1-3)Gal(b1-4)GlcNAc(b1-2)Man(a1-6)]Man(b1-4)GlcNAc(b1-4)GlcNAc
# Summary of the method: as §1
# [5] = target: Gal(b1-4)GlcNAc(b1-3)Gal(b1-4)GlcNAc(b1-3)Gal(b1-4)GlcNAc(b1-2)Man(a1-3)[Gal(b1-4)GlcNAc(b1-3)Gal(b1-4)GlcNAc(b1-3)Gal(b1-4)GlcNAc(b1-2)Man(a1-6)]Man(b1-4)GlcNAc(b1-4)[Fuc(a1-6)]GlcNAc
# Summary of the method: as §1
# [6] = target: Gal(b1-4)GlcNAc(b1-3)Gal(b1-4)GlcNAc(b1-3)Gal(b1-4)GlcNAc(b1-2)[Gal(b1-4)GlcNAc(b1-3)Gal(b1-4)GlcNAc(b1-3)Gal(b1-4)GlcNAc(b1-6)]Man(a1-6)[Gal(b1-4)GlcNAc(b1-3)Gal(b1-4)GlcNAc(b1-3)Gal(b1-4)GlcNAc(b1-2)Man(a1-3)]Man(b1-4)GlcNAc(b1-4)[Fuc(a1-6)]GlcNAc
# Summary of the method: as §1
# [7] = target: Gal(b1-4)GlcNAc(b1-3)Gal(b1-4)GlcNAc(b1-3)Gal(b1-4)GlcNAc(b1-3)Gal(b1-4)GlcNAc(b1-2)Man(a1-3)[Gal(b1-4)GlcNAc(b1-3)Gal(b1-4)GlcNAc(b1-3)Gal(b1-4)GlcNAc(b1-3)Gal(b1-4)GlcNAc(b1-2)Man(a1-6)]Man(b1-4)GlcNAc(b1-4)GlcNAc
# Summary of the method: as §1
# [8] = target: Gal(b1-4)GlcNAc(b1-3)Gal(b1-4)GlcNAc(b1-3)Gal(b1-4)GlcNAc(b1-3)Gal(b1-4)GlcNAc(b1-2)Man(a1-3)[Gal(b1-4)GlcNAc(b1-3)Gal(b1-4)GlcNAc(b1-3)Gal(b1-4)GlcNAc(b1-3)Gal(b1-4)GlcNAc(b1-2)Man(a1-6)]Man(b1-4)GlcNAc(b1-4)[Fuc(a1-6)]GlcNAc
# Summary of the method: as §1
# [9] = target: Gal(b1-4)GlcNAc(b1-3)Gal(b1-4)GlcNAc(b1-3)Gal(b1-4)GlcNAc(b1-3)Gal(b1-4)GlcNAc(b1-2)[Gal(b1-4)GlcNAc(b1-3)Gal(b1-4)GlcNAc(b1-3)Gal(b1-4)GlcNAc(b1-3)Gal(b1-4)GlcNAc(b1-6)]Man(a1-6)[Gal(b1-4)GlcNAc(b1-3)Gal(b1-4)GlcNAc(b1-3)Gal(b1-4)GlcNAc(b1-3)Gal(b1-4)GlcNAc(b1-2)Man(a1-3)]Man(b1-4)GlcNAc(b1-4)[Fuc(a1-6)]GlcNAc
# Summary of the method: as §1
# [10] = target: Gal(b1-4)GlcNAc(b1-3)Gal(b1-4)GlcNAc(b1-3)Gal(b1-4)GlcNAc(b1-3)Gal(b1-4)GlcNAc(b1-3)Gal(b1-4)GlcNAc(b1-2)Man(a1-3)[Gal(b1-4)GlcNAc(b1-3)Gal(b1-4)GlcNAc(b1-3)Gal(b1-4)GlcNAc(b1-3)Gal(b1-4)GlcNAc(b1-3)Gal(b1-4)GlcNAc(b1-2)Man(a1-6)]Man(b1-4)GlcNAc(b1-4)GlcNAc
# Summary of the method: as §1
# [11] = target: Gal(b1-4)GlcNAc(b1-3)Gal(b1-4)GlcNAc(b1-3)Gal(b1-4)GlcNAc(b1-3)Gal(b1-4)GlcNAc(b1-3)Gal(b1-4)GlcNAc(b1-2)Man(a1-3)[Gal(b1-4)GlcNAc(b1-3)Gal(b1-4)GlcNAc(b1-3)Gal(b1-4)GlcNAc(b1-3)Gal(b1-4)GlcNAc(b1-3)Gal(b1-4)GlcNAc(b1-2)Man(a1-6)]Man(b1-4)GlcNAc(b1-4)[Fuc(a1-6)]GlcNAc
# Summary of the method: as §1
# [12] = target: Gal(b1-4)GlcNAc(b1-3)Gal(b1-4)GlcNAc(b1-3)Gal(b1-4)GlcNAc(b1-3)Gal(b1-4)GlcNAc(b1-3)Gal(b1-4)GlcNAc(b1-2)[Gal(b1-4)GlcNAc(b1-3)Gal(b1-4)GlcNAc(b1-3)Gal(b1-4)GlcNAc(b1-3)Gal(b1-4)GlcNAc(b1-3)Gal(b1-4)GlcNAc(b1-6)]Man(a1-6)[Gal(b1-4)GlcNAc(b1-3)Gal(b1-4)GlcNAc(b1-3)Gal(b1-4)GlcNAc(b1-3)Gal(b1-4)GlcNAc(b1-3)Gal(b1-4)GlcNAc(b1-2)Man(a1-3)]Man(b1-4)GlcNAc(b1-4)[Fuc(a1-6)]GlcNAc
# Summary of the method: as §1
# [13] = target: Gal(b1-4)GlcNAc(b1-3)Gal(b1-4)GlcNAc(b1-3)Gal(b1-4)GlcNAc(b1-3)Gal(b1-4)GlcNAc(b1-3)Gal(b1-4)GlcNAc(b1-3)Gal(b1-4)GlcNAc(b1-2)Man(a1-3)[Gal(b1-4)GlcNAc(b1-3)Gal(b1-4)GlcNAc(b1-3)Gal(b1-4)GlcNAc(b1-3)Gal(b1-4)GlcNAc(b1-3)Gal(b1-4)GlcNAc(b1-3)Gal(b1-4)GlcNAc(b1-2)Man(a1-6)]Man(b1-4)GlcNAc(b1-4)GlcNAc
# Summary of the method: as §1
# [14] = target: Gal(b1-4)GlcNAc(b1-3)Gal(b1-4)GlcNAc(b1-3)GalNAc
# Summary of the method: as §1
# [15] = target: Gal(b1-4)GlcNAc(b1-3)Gal(b1-4)GlcNAc(b1-3)[Gal(b1-4)GlcNAc(b1-3)Gal(b1-4)GlcNAc(b1-6)]GalNAc
# Summary of the method: as §1
# [16] = target: Gal(b1-4)GlcNAc(b1-3)Gal(b1-4)GlcNAc(b1-6)[Gal(b1-3)]GalNAc
# Summary of the method: as §1
# [17] = target: Gal(b1-4)GlcNAc(b1-3)Gal(b1-4)[Fuc(a1-3)]GlcNAc(b1-3)Gal(b1-4)[Fuc(a1-3)]GlcNAc
# Summary of the method: as §1
# [18] = target: Gal(b1-4)GlcNAc(b1-3)GalNAc
# Summary of the method: as §1
# [19] = target: Gal(b1-4)GlcNAc(b1-3)[Fuc(a1-3)GlcNAc(b1-6)]Gal(b1-4)Glc
# Summary of the method: as §1
# [20] = target: Gal(b1-4)GlcNAc(b1-3)[Gal(b1-4)GlcNAc(b1-6)]Gal(b1-4)GlcNAc
# Summary of the method: as §1
# [21] = target: Gal(b1-4)GlcNAc(b1-3)[GlcNAc(b1-6)]Gal(b1-4)GlcNAc
# Summary of the method: as §1
# [22] = target: Gal(b1-4)GlcNAc(b1-6)Gal(b1-4)GlcNAc
# Summary of the method: as §1
# [23] = target: Gal(b1-4)GlcNAc(b1-6)GalNAc
# Summary of the method: as §1
# [24] = target: Gal(b1-4)GlcNAc(b1-6)[Gal(b1-3)]GalNAc
# Summary of the method: as §1
# [25] = target: Gal(b1-4)GlcNAc(b1-6)[Gal(b1-4)GlcNAc(b1-3)]GalNAc
# Summary of the method: as §1
# [26] = target: Gal(b1-4)GlcNAc6P
# Summary of the method: as §1
# [27] = target: Gal(b1-6)Gal
# Summary of the method: as §1
# [28] = target: Gal3S(b1-3)GalNAc
# Summary of the method: as §1
# [29] = target: Gal3S(b1-3)GlcNAc
# Summary of the method: as §1
# [30] = target: Gal3S(b1-3)[Fuc(a1-4)]GlcNAc
# Summary of the method: as §1
# [31] = target: Gal3S(b1-4)Glc
# Summary of the method: as §1
# [32] = target: Gal3S(b1-4)Glc6S
# Summary of the method: as §1
# [33] = target: Gal3S(b1-4)GlcNAc
# Summary of the method: as §1
# [34] = target: Gal3S(b1-4)[Fuc(a1-3)]Glc6S
# Summary of the method: as §1
# [35] = target: Gal3S(b1-4)[Fuc(a1-3)]GlcNAc
# Summary of the method: as §1
# [36] = target: Gal3S(b1-4)[Fuc(a1-3)]GlcNAc6S
# Summary of the method: as §1
# [37] = target: Gal3S4S(b1-4)GlcNAc
# Summary of the method: as §1
# [38] = target: Gal3S6S(b1-4)GlcNAc
# Summary of the method: as §1
# [39] = target: Gal3S6S(b1-4)GlcNAc6S
# Summary of the method: as §1
# [40] = target: Gal4S(b1-4)GlcNAc
# Summary of the method: as §1
# [41] = target: Gal4S6S(b1-4)GlcNAc
# Summary of the method: as §1
# [42] = target: Gal6P(b1-4)GlcNAc
# Summary of the method: as §1
# [43] = target: Gal6S(b1-3)GlcNAc
# Summary of the method: as §1
# [44] = target: Gal6S(b1-3)GlcNAc6S
# Summary of the method: as §1
# [45] = target: Gal6S(b1-4)Glc
# Summary of the method: as §1
binder,measurement,setting,value
B1,glycan array binding signal (z-score),[1],0.268
same,glycan array binding signal (z-score),[2],1.7
same,glycan array binding signal (z-score),[3],0.873
same,glycan array binding signal (z-score),[4],0.851
same,glycan array binding signal (z-score),[5],2.73
same,glycan array binding signal (z-score),[6],1.86
same,glycan array binding signal (z-score),[7],0.057
same,glycan array binding signal (z-score),[8],0.176
same,glycan array binding signal (z-score),[9],0.939
same,glycan array binding signal (z-score),[10],-0.5
same,glycan array binding signal (z-score),[11],0.848
same,glycan array binding signal (z-score),[12],1.48
same,glycan array binding signal (z-score),[13],0.421
same,glycan array binding signal (z-score),[14],1.1
same,glycan array binding signal (z-score),[15],2.68
same,glycan array binding signal (z-score),[16],2.97
same,glycan array binding signal (z-score),[17],-1.06
same,glycan array binding signal (z-score),[18],-0.214
same,glycan array binding signal (z-score),[19],1.05
same,glycan array binding signal (z-score),[20],0.691
same,glycan array binding signal (z-score),[21],0.291
same,glycan array binding signal (z-score),[22],-0.155
same,glycan array binding signal (z-score),[23],0.387
same,glycan array binding signal (z-score),[24],-0.651
same,glycan array binding signal (z-score),[25],-0.307
same,glycan array binding signal (z-score),[26],-0.102
same,glycan array binding signal (z-score),[27],-0.552
same,glycan array binding signal (z-score),[28],0.361
same,glycan array binding signal (z-score),[29],-1.37
same,glycan array binding signal (z-score),[30],0.93
same,glycan array binding signal (z-score),[31],1.59
same,glycan array binding signal (z-score),[32],-0.477
same,glycan array binding signal (z-score),[33],-1.36
same,glycan array binding signal (z-score),[34],1.06
same,glycan array binding signal (z-score),[35],-0.457
same,glycan array binding signal (z-score),[36],0.881
same,glycan array binding signal (z-score),[37],-0.317
same,glycan array binding signal (z-score),[38],-0.119
same,glycan array binding signal (z-score),[39],1.02
same,glycan array binding signal (z-score),[40],-0.336
same,glycan array binding signal (z-score),[41],0.847
same,glycan array binding signal (z-score),[42],0.547
same,glycan array binding signal (z-score),[43],-1.93
same,glycan array binding signal (z-score),[44],0.54
same,glycan array binding signal (z-score),[45],-0.15

# Rewritten as tab-separated lines: part of the list above
binder	measurement	setting	value
B1	glycan array binding signal (z-score)	[11]	0.848
same	glycan array binding signal (z-score)	[20]	0.691
